Data as given in PubChem BioAssay AID504808 (Drosophila RNAi Screening Center, 2011).
The deposit covers about 21,000 reagents; this is an unselected part of those with a known target gene and a result. Of all reagents, 18 (0.084%) are marked active. 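Raw counts without plate normalisation, one of two replicates; the ratio scores behind the calls were not deposited.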 A number with no mark means an inactive call. Reagents against one gene are numbered here. Names joined by + are all predicted targets of the reagent. The record does not give: the amount of reagent, the time to read-out.

Screen: 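Fly genes required to hold E2F transcription in check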 (primary screen)
System: Drosophila S2 cells
Reagents: long dsRNA against Drosophila genes
Measured: 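Firefly luciferase driven by E2F sites, normalised to Renilla luciferase on the same minimal promoter, measured by plate reader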
Scale: E2F firefly: higher = more E2F reporter activity; Renilla normaliser: higher = more normaliser reporter signal
Rule for the call: 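Called active if the normalised E2F reporter went up by over 50%; the cutoff is arbitrary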

| gene | reagent | E2F firefly, rep 1 | Renilla normaliser, rep 1 |
| --- | --- | --- | --- |
| CG13403 | 1 | 2.31e5 | 6331 |
| CG1801 | 1 | 1.30e5 | 5772 |
| ERp60 (Endoplasmic reticulum p60) | 1 | 156 | 46 |
| CG4009 | 1 | 1.10e5 | 6376 |
| caps (capricious) | 1 | 1.50e5 | 6277 |
| Cep135 (Centrosomal protein 135kDa) | 1 | 1.29e5 | 3997 |
| Cep135 (Centrosomal protein 135kDa) | 2 | 70823 | 3642 |
| Fkbp39 (FK506-binding protein 39kD) | 1 | 62613 | 3295 |
| CG9945 | 1 | 93885 | 4024 |
| CG17597 | 1 | 77349 | 3187 |
| CG10962 | 1 | 9063 | 772 |
| CG4168 | 1 | 1.25e5 | 5446 |
| CG4168 | 2 | 1.37e5 | 5325 |
| CG4168 | 3 | 74991 | 3304 |
| Tsp3A (Tetraspanin 3A) | 1 | 1.30e5 | 5245 |
| Cda4 (Chitin deacetylase-like 4) | 1 | 1.34e5 | 6096 |
| Cda4 (Chitin deacetylase-like 4) | 2 | 1.31e5 | 5990 |
| Cda4 (Chitin deacetylase-like 4) | 3 | 1.32e5 | 7022 |
| sw + Sdic4 + Sdic3 + 2 more | 1 | 1.41e5 | 6373 |
| Sox100B | 1 | 93556 | 7568 |
| Sox100B | 2 | 1.19e5 | 6646 |
| Culd (CUB and LDLa domain) | 1 | 91652 | 3756 |
| CG4770 | 1 | 1.49e5 | 7157 |
| IntS1 (Integrator 1) | 1 | 1.09e5 | 3738 |
| CG14778 | 1 | 1.32e5 | 5859 |
| ppk11 (pickpocket 11) | 1 | 1.45e5 | 4815 |
| CG14589 | 1 | 1.14e5 | 4740 |
| ath (athos) | 1 | 1.62e5 | 5042 |
| E(spl)m7-HLH (Enhancer of split m7, helix-loop-helix) | 1 | 1.17e5 | 6126 |
| t-cup (tetleys-cup) | 1 | 94708 | 6088 |
| CG7387 | 1 | 83319 | 4301 |
| Tnpo-SR (Transportin-Serine/Arginine rich) | 1 | 1.01e5 | 3436 |
| CG5676 | 1 | 1.54e5 | 5858 |
| CG9192 | 1 | 95887 | 4304 |
| Ibf2 (Insulator binding factor 2) | 1 | 1.37e5 | 5906 |
| CG3907 | 1 | 1.29e5 | 5056 |
| Top2 (Topoisomerase 2) | 1 | 1.28e5 | 4664 |
| Ae2 (Anion exchanger 2) | 1 | 49622 | 3334 |
| Ae2 (Anion exchanger 2) | 2 | 70266 | 3228 |
| CG12991 | 1 | 1.59e5 | 6086 |
| CCHa1 (CCHamide-1) | 1 | 1.09e5 | 10112 |
| Hrd3 (HMG-coA reductase degradation 3) | 1 | 63864 | 2994 |
| miple2 (midkine and pleiotrophin 2) | 1 | 92524 | 4434 |
| CG14961 | 1 | 94555 | 4132 |
| CG31917 + Tfb5 | 1 | 1.64e5 | 4950 |
| CG31917 + Tfb5 | 2 | 1.80e5 | 5135 |
| CG15472 | 1 | 1.12e5 | 5977 |
| Fatp2 (Fatty acid transport protein 2) | 1 | 1.29e5 | 5274 |
| Fatp2 (Fatty acid transport protein 2) | 2 | 98778 | 4597 |
| Fatp2 (Fatty acid transport protein 2) | 3 | 97944 | 4134 |
| CG15153 | 1 | 1.05e5 | 4633 |
| CG17917 | 1 | 1.25e5 | 6353 |
| MED6 (Mediator complex subunit 6) | 1 | 54842 | 3150 |
| RpS10a (Ribosomal protein S10a) | 1 | 1809 | 892 |
| Mpcp1 | 1 | 1.59e5 | 5761 |
| CG31368 | 1 | 1.53e5 | 6904 |
| CG31368 | 2 | 74882 | 3882 |
| CycT (Cyclin T) | 1 | 37049 | 2944 |
| Fs(2)Ket (Female sterile (2) Ketel) | 1 | 45296 | 177 |
| CG3598 | 1 | 1.17e5 | 7147 |
| l(2)41Ab (lethal (2) 41Ab) | 1 | 87019 | 2754 |
| Efhc1.1 (EF-hand domain containing 1.1) | 1 | 1.52e5 | 5699 |
| hook | 1 | 84337 | 4436 |
| ytr (yantar) | 1 | 84051 | 3764 |
| CG15676 | 1 | 1.09e5 | 4262 |
| Mtl (Mig-2-like) | 1 | 1.22e5 | 6091 |
| Kebab (Kinetochore and EB1 associated basic protein) | 1 | 84093 | 3453 |
| CG34202 | 1 | 1.72e5 | 5699 |
| Grx1 (Glutaredoxin 1) | 1 | 1.40e5 | 7680 |
| SmD1 (Small ribonucleoprotein particle protein SmD1) | 1 | 71105 | 5283 |
| CtsK1 (Cathepsin K1) | 1 | 1.56e5 | 7387 |
| Gr22b (Gustatory receptor 22b) | 1 | 76839 | 2982 |
| CG17300 | 1 | 1.19e5 | 7167 |
| CG6567 | 1 | 1.31e5 | 6772 |
| CG16717 | 1 | 1.18e5 | 7000 |
| Nup98-96 (Nucleoporin 98-96kD) | 1 | 58996 | 2883 |
| Nup98-96 (Nucleoporin 98-96kD) | 2 | 61538 | 4840 |
| TfIIS (RNA polymerase II elongation factor) | 1 | 88284 | 3763 |
| CG3594 | 1 | 83291 | 3293 |
| RpL6 (Ribosomal protein L6) | 1 | 47655 | 3999 |
| Irk2 (Inwardly rectifying potassium channel 2) | 1 | 85352 | 3914 |
| KP78a + KP78b | 1 | 1.57e5 | 6964 |
| KP78a + KP78b | 2 | 1.55e5 | 7281 |
| Ret (Ret oncogene) | 1 | 87122 | 3885 |
| Ret (Ret oncogene) | 2 | 97698 | 4139 |
